Measurements reported in PubChem BioAssay AID1224826 (NIAID, 2016).

Aim: 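Regulators of Tlr4 signalling leading to Tnf-alpha expression in macrophages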 (primary screen)
Cells: RAW264.7 G9 macrophages from mouse bearing reporters for p65 (GFP) and the Tnf promoter (mCherry)
Reagents: siRNA pool against mouse genes, 100 nM
Duration: 16 h of LPS stimulation, after 2 days of siRNA transfection
Conditions: bacterial lipopolysaccharide (Salmonella minnesota R595), 10 ng/ml
Measured: 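Nuclear mCherry signal of the Tnf promoter reporter measured by imaging after background removal, scaled to each plate median and turned into robust z-scores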
Direction: Tnf reporter robust z-score: higher = stronger Tnf promoter reporter signal after LPS
Call rule: 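a well counts as active at a score of -1.3 or below (Tlr4 knock-down control median) or above 3 (raised signal); controls and wells holding fewer than 50 cells are excluded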
Meaning of the calls: active = Tnf reporter clearly lowered or raised; inactive = no clear change in Tnf reporter
This is a random part of about 17,000 reagents tested. About 1,110 of them (6.6%) count as active. 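Active means lowered or raised reporter signal; replicate intensities are raw and not normalised per plate.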 Not all columns of the deposit are shown.

| gene symbol | Tnf reporter robust z-score | fewer than 50 cells in well | call |
| --- | --- | --- | --- |
| Adra2c (adrenergic receptor, alpha 2c) | -0.91 | enough cells in well | inactive |
| Rnf8 (ring finger protein 8) | -1.69 | enough cells in well | active |
| Cxcr4 (C-X-C motif chemokine receptor 4) | -0.95 | enough cells in well | inactive |
| Pbx4 (pre B cell leukemia homeobox 4) | -0.47 | enough cells in well | inactive |
| Them7 (thioesterase superfamily member 7) | -0.62 | enough cells in well | inactive |
| Ndufaf1 (NADH:ubiquinone oxidoreductase complex assembly factor 1) | 0.77 | enough cells in well | inactive |
| Actl7b (actin-like 7b) | 0.26 | enough cells in well | inactive |
| Adam26a (ADAM metallopeptidase domain 26A) | -0.69 | enough cells in well | inactive |
| Or52k2 (olfactory receptor family 52 subfamily K member 2) | – | fewer than 50 cells per well; well left out of calls | inactive |
| Apcdd1 (adenomatosis polyposis coli down-regulated 1) | -0.14 | enough cells in well | inactive |
| Tob2 (transducer of ERBB2, 2) | -0.19 | enough cells in well | inactive |
| Got2 (glutamatic-oxaloacetic transaminase 2, mitochondrial) | -0.7 | enough cells in well | inactive |
| Muc20 (mucin 20) | -0.59 | enough cells in well | inactive |
| Angptl3 (angiopoietin-like 3) | 1.24 | enough cells in well | inactive |
| Ptgdr (prostaglandin D receptor) | -0.09 | enough cells in well | inactive |
| Kiss1 (KiSS-1 metastasis-suppressor) | 0.4 | enough cells in well | inactive |
| Vmn1r232 (vomeronasal 1 receptor 232) | – | fewer than 50 cells per well; well left out of calls | inactive |
| Plrg1 (pleiotropic regulator 1) | -0.99 | enough cells in well | inactive |
| Neto1 (neuropilin (NRP) and tolloid (TLL)-like 1) | -2.08 | enough cells in well | active |
| Prag1 (PEAK1 related kinase activating pseudokinase 1) | -0.28 | enough cells in well | inactive |
| Il21 (interleukin 21) | – | fewer than 50 cells per well; well left out of calls | inactive |
| Esam (endothelial cell-specific adhesion molecule) | 0.64 | enough cells in well | inactive |
| Galnt10 (polypeptide N-acetylgalactosaminyltransferase 10) | -0.84 | enough cells in well | inactive |
| Zfp606 (zinc finger protein 606) | – | fewer than 50 cells per well; well left out of calls | inactive |
| Aktip (AKT interacting protein) | 0.05 | enough cells in well | inactive |
| Adam28 (a disintegrin and metallopeptidase domain 28) | -0.92 | enough cells in well | inactive |
| Alg1 (ALG1 chitobiosyldiphosphodolichol beta-mannosyltransferase) | -1.04 | enough cells in well | inactive |
| Slco2a1 | -0.42 | enough cells in well | inactive |
| Micos13 | 3.84 | enough cells in well | active |
| Mbnl3 (muscleblind like splicing factor 3) | -1.55 | enough cells in well | active |
| Slc6a1 | 0.54 | enough cells in well | inactive |

9 entries from above, reformatted.
{"gene symbol": "Or52k2 (olfactory receptor family 52 subfamily K member 2)", "fewer than 50 cells in well": "fewer than 50 cells per well; well left out of calls", "call": "inactive"}
{"gene symbol": "Apcdd1 (adenomatosis polyposis coli down-regulated 1)", "Tnf reporter robust z-score": -0.14, "fewer than 50 cells in well": "enough cells in well", "call": "inactive"}
{"gene symbol": "Tob2 (transducer of ERBB2, 2)", "Tnf reporter robust z-score": -0.19, "fewer than 50 cells in well": "enough cells in well", "call": "inactive"}
{"gene symbol": "Got2 (glutamatic-oxaloacetic transaminase 2, mitochondrial)", "Tnf reporter robust z-score": -0.7, "fewer than 50 cells in well": "enough cells in well", "call": "inactive"}
{"gene symbol": "Muc20 (mucin 20)", "Tnf reporter robust z-score": -0.59, "fewer than 50 cells in well": "enough cells in well", "call": "inactive"}
{"gene symbol": "Angptl3 (angiopoietin-like 3)", "Tnf reporter robust z-score": 1.24, "fewer than 50 cells in well": "enough cells in well", "call": "inactive"}
{"gene symbol": "Ptgdr (prostaglandin D receptor)", "Tnf reporter robust z-score": -0.09, "fewer than 50 cells in well": "enough cells in well", "call": "inactive"}
{"gene symbol": "Kiss1 (KiSS-1 metastasis-suppressor)", "Tnf reporter robust z-score": 0.4, "fewer than 50 cells in well": "enough cells in well", "call": "inactive"}
{"gene symbol": "Vmn1r232 (vomeronasal 1 receptor 232)", "fewer than 50 cells in well": "fewer than 50 cells per well; well left out of calls", "call": "inactive"}

The list goes on.
| gene symbol | Tnf reporter robust z-score | fewer than 50 cells in well | call |
| --- | --- | --- | --- |
| Tfip11 (tuftelin interacting protein 11) | – | fewer than 50 cells per well; well left out of calls | inactive |
| Oog3 (oogenesin 3) | -1.12 | enough cells in well | inactive |
| Sparc (secreted acidic cysteine rich glycoprotein) | 0.24 | enough cells in well | inactive |
| Mcmdc2 (minichromosome maintenance domain containing 2) | 0.62 | enough cells in well | inactive |
| Acp2 (acid phosphatase 2, lysosomal) | 1.32 | enough cells in well | inactive |
| Pin1 (peptidyl-prolyl cis/trans isomerase, NIMA-interacting 1) | -0.07 | enough cells in well | inactive |
| Or8k37 (olfactory receptor family 8 subfamily K member 37) | 1.78 | enough cells in well | inactive |
| Fes (Fes proto-oncogene, tyrosine kinase) | 1.58 | enough cells in well | inactive |
| Rpl19 (ribosomal protein L19) | – | fewer than 50 cells per well; well left out of calls | inactive |
| Dld (dihydrolipoamide dehydrogenase) | -0.12 | enough cells in well | inactive |
| Sav1 (salvador family WW domain containing 1) | -1.54 | enough cells in well | active |
| Lrrtm1 (leucine rich repeat transmembrane neuronal 1) | -0.55 | enough cells in well | inactive |
| Ugcg (UDP-glucose ceramide glucosyltransferase) | 0.02 | enough cells in well | inactive |
| Vmn1r211 (vomeronasal 1 receptor 211) | 0.93 | enough cells in well | inactive |
| Plat (plasminogen activator, tissue) | -0.46 | enough cells in well | inactive |
| Cachd1 (cache domain containing 1) | -0.19 | enough cells in well | inactive |
| Cdc37 (cell division cycle 37) | 1.13 | enough cells in well | inactive |
| Vmn1r51 (vomeronasal 1 receptor 51) | 1.05 | enough cells in well | inactive |
| Cd200r4 (CD200 receptor 4) | 1.91 | enough cells in well | inactive |
| Spns1 (SPNS lysolipid transporter 1, lysophospholipid) | – | fewer than 50 cells per well; well left out of calls | inactive |
| Amer1 (APC membrane recruitment 1) | 0.82 | enough cells in well | inactive |
| Lce1e (late cornified envelope 1E) | 2.12 | enough cells in well | inactive |
| Sox3 (SRY (sex determining region Y)-box 3) | -0.14 | enough cells in well | inactive |
| Sncg (synuclein, gamma) | -0.88 | enough cells in well | inactive |
| Disc1 (disrupted in schizophrenia 1) | -0.27 | enough cells in well | inactive |
| Pgf (placental growth factor) | 0.12 | enough cells in well | inactive |
| Klf5 (Kruppel-like transcription factor 5) | -0.65 | enough cells in well | inactive |
